# Assay results taken from PubChem BioAssay AID540256 (National Center for Advancing Translational Sciences (NCATS), 2011).
# Out of some 300,000 compounds screened, about 3,700 (1.2%) were called active. Inconclusive means that the source gave no clear call. Such entries were picked first, then a sample of the others. Calls follow the shape of the full dose curve; tested in HEK293 cells. Where the call is inconclusive, the potency comes from a doubtful curve fit.
# Assay: qHTS for Inhibitors of binding or entry into cells for Lassa Virus; also: nearly all actives have a fitted effect of over 50% in size
# Settings: Lassa virus pseudotype entry inhibition, cell reporter; activity change, negative = inhibition: at 37.9 µM (top of the series) unless noted
# % is scaled to controls: 0 for no effect and ±100 for the full control effect; potency is read from the fitted curve at half-maximal effect.
SMILES,"activity change, negative = inhibition",Potency
COc1ccc(S(=O)(=O)N(C)C)cc1NC(=O)Cc1cccs1,inactive: 3.8% [at 46.1 µM],–
COc1ccc2cc(C(=O)C3CCCN(C(=O)Cc4c(C)noc4C)C3)ccc2c1 (centres undefined),–,"inconclusive: 35.5 µM [inhibitor, single point]"
COc1ccc(-c2coc3c(C)c4oc(=O)c(CCC(=O)O)c(C)c4cc23)cc1,–,"inconclusive: 35.5 µM [inhibitor, single point]"
CCCCSc1nc2ccc(Nc3nc(N4CCOCC4)nc(N4CCOCC4)n3)cc2s1,–,"inconclusive: 23.1 µM [inhibitor, single point]"
COc1ccc(NC(=O)N2CCN(c3cc(-c4noc(C)n4)ccc3C)CC2)c(OC)c1,inactive: -2.37% [at 46.1 µM],–
CCCCC(=O)Nc1cccc2c1C(=O)N(c1ccccc1)C2=O,inactive: -11.1%,–
CN(C)S(=O)(=O)c1ccc(C(=O)N2CCN=C2SCc2cccnc2)cc1,–,"inconclusive: 3.98 µM [activator, single point]"
Cc1occc1-c1nnc(-c2cc([N+](=O)[O-])cc([N+](=O)[O-])c2)o1,inactive: 2.21% [at 46.1 µM],–
c1cncc(-c2nc(NCC3CCCO3)c3ccccc3n2)c1 (centres undefined),–,"inconclusive: 10 µM [inhibitor, partial curve, poor fit]"
Cc1cccc(-c2nc3nc(C)cc(N4CCN(c5ccccc5)CC4)n3n2)c1,–,"inconclusive: 17.8 µM [activator, single point]"
Cc1ccc(S(=O)(=O)c2c(N)n(CCC(C)C)c3nc4ccccc4nc23)cc1,–,"inconclusive: 20.6 µM [inhibitor, partial curve, poor fit]"
CC1CCN(C(=O)C2CCN(S(=O)(=O)c3ccc4c(c3)CC(C)N4C(=O)C3CC3)CC2)CC1 (centres undefined),–,"inconclusive: 35.5 µM [inhibitor, partial curve, poor fit]"
COC(=O)c1ccccc1NC(=O)COc1ccccc1,inactive: -11.1% [at 14.3 µM],–
CC1CC(N(C(=O)c2ccccc2Cl)c2ccccc2)c2ccccc2N1 (centres undefined),–,"inconclusive: 10 µM [inhibitor, partial curve]"
Cc1nn(C)c(C)c1CCC(=O)NC1CC(C)(C)Cc2c1cnn2-c1ccccc1 (centres undefined),inactive: 8.46%,–
COc1cccc(C(=O)n2nc(-c3ccco3)nc2NCc2cccs2)c1,inactive: -0.967% [at 46.1 µM],–
Cc1ccc(N(CC2CO2)S(=O)(=O)c2ccc([N+](=O)[O-])cc2)cc1 (centres undefined),inactive: -18%,–
Cc1cccc(CN2C(=O)c3ccccc3S(=O)(=O)c3ccc(C(=O)N4CCN(c5cc(C)ccc5C)CC4)cc32)c1,inactive: 8.48% [at 46.1 µM],–
Cc1cc(C)c2nc(NC(=O)[C@@H](NC(=O)c3cccc(S(=O)(=O)N4CCOCC4)c3)C(C)C)sc2c1,–,"inconclusive: 17.8 µM [inhibitor, single point]"

# Reprinted at random: 2 compounds from above.
SMILES,"activity change, negative = inhibition",Potency
CCCCSc1nc2ccc(Nc3nc(N4CCOCC4)nc(N4CCOCC4)n3)cc2s1,–,"inconclusive: 23.1 µM [inhibitor, single point]"
COC(=O)c1ccccc1NC(=O)COc1ccccc1,inactive: -11.1% [at 14.3 µM],–
